Reference: paper PMC9120032
Results are given in words; binding and its absence hold for the method and conditions named. Binding seen in cells or lysates may run through a third protein.

Protein sequences, listed by entry. Tags and fused reporters are not part of them. Lines headed by an entry give the natural chain unless they say otherwise; changes in a name come on top.
UniProt P0DTC6: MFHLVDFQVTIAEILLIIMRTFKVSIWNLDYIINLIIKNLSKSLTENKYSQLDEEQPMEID
UniProt P42224: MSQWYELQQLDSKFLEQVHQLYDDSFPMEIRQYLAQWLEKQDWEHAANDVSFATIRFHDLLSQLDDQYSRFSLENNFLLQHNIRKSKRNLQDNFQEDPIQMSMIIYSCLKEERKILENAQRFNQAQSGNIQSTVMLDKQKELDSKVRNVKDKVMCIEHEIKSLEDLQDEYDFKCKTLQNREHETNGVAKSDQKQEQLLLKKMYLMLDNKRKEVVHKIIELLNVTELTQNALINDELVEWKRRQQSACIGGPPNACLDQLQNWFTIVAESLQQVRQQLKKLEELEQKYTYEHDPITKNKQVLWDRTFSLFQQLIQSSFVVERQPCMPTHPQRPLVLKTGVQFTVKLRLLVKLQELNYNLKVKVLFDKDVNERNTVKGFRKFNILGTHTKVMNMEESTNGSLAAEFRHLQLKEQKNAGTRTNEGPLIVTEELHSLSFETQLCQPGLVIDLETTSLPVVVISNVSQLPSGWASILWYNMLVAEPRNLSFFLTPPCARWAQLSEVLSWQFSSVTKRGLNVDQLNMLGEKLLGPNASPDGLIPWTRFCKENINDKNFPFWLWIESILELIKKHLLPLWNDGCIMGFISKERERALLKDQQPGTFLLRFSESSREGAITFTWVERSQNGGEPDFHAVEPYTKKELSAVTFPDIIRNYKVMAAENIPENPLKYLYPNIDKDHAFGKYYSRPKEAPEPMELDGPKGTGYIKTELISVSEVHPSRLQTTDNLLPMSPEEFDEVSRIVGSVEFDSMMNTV

Legend:
GST-M3-GFP (SARS-CoV-2) = GST-M3-GFP (SARS-CoV-2) (UniProt P0DTC6); assay: pull-down; lysates from HeLa cells stimulated with IFN-γ incubated with GST fusion proteins immobilised on GST-beads for 1 h; PY-STAT1 detected by western blot; only the target purified
GST-M2-GFP (SARS-CoV-2) = GST-M2-GFP (SARS-CoV-2) (UniProt P0DTC6); assay: as above

endogenous PY-STAT1 in HeLa cells stimulated by IFN-γ (from UniProt P42224 1-750)
binding (GST-M3-GFP (SARS-CoV-2)): no binding
binding (GST-M2-GFP (SARS-CoV-2)): no binding
